PubChem BioAssay AID1671195 | Yale University, 2021
This is one part, drawn at random, of about 22,000 reagents. About 1,510 of them (6.9%) count as active. 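Active includes knockdowns raising or lowering LDL uptake; positive z-scores mean more uptake, negative mean less.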

- Assay: 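Genes whose knockdown alters LDL uptake in liver cancer cells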 (primary screen)
- System: human Huh7 hepatoma cells
- Reagents: siRNA pool against human genes, 18 nM
- Timing: about 2 to 2.5 days of knockdown, then 8 h LDL uptake
- Treatment: DiI-labelled LDL at 30 µg/ml for 8 h, in lipoprotein-deficient serum medium
- Read-out: 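Fluorescent LDL signal imaged in cells, scaled to the plate median, robust z-score for each replicate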
- Scale: robust z-score: higher = more LDL uptake after knockdown
- Active means: 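Active when two or more replicates show a robust z-score above 2 or below -2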

STPG4 → robust z-score, replicate 1: -0.381; robust z-score, replicate 2: -0.47; robust z-score, replicate 3: -0.506; outcome: inactive
DNMT3L → robust z-score, replicate 1: 0.378; robust z-score, replicate 2: -0.0441; robust z-score, replicate 3: 0.118; outcome: inactive
MKRN10P → robust z-score, replicate 1: 0.121; robust z-score, replicate 2: -0.226; robust z-score, replicate 3: -0.114; outcome: inactive
RSPH14 → robust z-score, replicate 1: -0.603; robust z-score, replicate 2: 0.664; robust z-score, replicate 3: -0.209; outcome: inactive
KRTAP13-1 → robust z-score, replicate 1: 0.105; robust z-score, replicate 2: -0.538; robust z-score, replicate 3: -0.321; outcome: inactive
TOP1 → robust z-score, replicate 1: 0.331; robust z-score, replicate 2: 0.535; robust z-score, replicate 3: 0.479; outcome: inactive
MPC1 → robust z-score, replicate 1: 1.45; robust z-score, replicate 2: 2.23; robust z-score, replicate 3: 2.5; outcome: active
METAP1 → robust z-score, replicate 1: 2.43; robust z-score, replicate 2: 2.73; robust z-score, replicate 3: 2.12; outcome: active
LOC441110 (retired record) → robust z-score, replicate 1: -0.523; robust z-score, replicate 2: -0.999; robust z-score, replicate 3: -0.439; outcome: inactive
LOC440916 (retired record) → robust z-score, replicate 1: 0.332; robust z-score, replicate 2: 0.284; robust z-score, replicate 3: 0.431; outcome: inactive
RTCA → robust z-score, replicate 1: 0.617; robust z-score, replicate 2: 0.397; robust z-score, replicate 3: 1.07; outcome: inactive
PRAM1 → robust z-score, replicate 1: 0.259; robust z-score, replicate 2: 0.144; robust z-score, replicate 3: 0.102; outcome: inactive
ZNF12 → robust z-score, replicate 1: -0.572; robust z-score, replicate 2: -0.79; robust z-score, replicate 3: -0.423; outcome: inactive
OR4K17 → robust z-score, replicate 1: -0.42; robust z-score, replicate 2: -0.664; robust z-score, replicate 3: -0.694; outcome: inactive
BICD1 → robust z-score, replicate 1: -0.573; robust z-score, replicate 2: -1.16; robust z-score, replicate 3: 1.22; outcome: inactive
PHB1 → robust z-score, replicate 1: -0.75; robust z-score, replicate 2: -0.885; robust z-score, replicate 3: -1.71; outcome: inactive
R3HDM1 → robust z-score, replicate 1: -0.362; robust z-score, replicate 2: -0.714; robust z-score, replicate 3: -0.128; outcome: inactive
LANCL2 → robust z-score, replicate 1: -0.817; robust z-score, replicate 2: -0.369; robust z-score, replicate 3: -1.27; outcome: inactive
TMEM51-AS1 → robust z-score, replicate 1: -0.0214; robust z-score, replicate 2: 0.0141; robust z-score, replicate 3: -0.0778; outcome: inactive
KIFC1 → robust z-score, replicate 1: 0.719; robust z-score, replicate 2: -0.107; robust z-score, replicate 3: 0.358; outcome: inactive

Next part; the last 3 above are carried over.
LANCL2 → robust z-score, replicate 1: -0.817; robust z-score, replicate 2: -0.369; robust z-score, replicate 3: -1.27; outcome: inactive
TMEM51-AS1 → robust z-score, replicate 1: -0.0214; robust z-score, replicate 2: 0.0141; robust z-score, replicate 3: -0.0778; outcome: inactive
KIFC1 → robust z-score, replicate 1: 0.719; robust z-score, replicate 2: -0.107; robust z-score, replicate 3: 0.358; outcome: inactive
PLEKHA5 → robust z-score, replicate 1: -1.93; robust z-score, replicate 2: -0.822; robust z-score, replicate 3: -1.54; outcome: inactive
ZNF268 → robust z-score, replicate 1: -0.979; robust z-score, replicate 2: -0.472; robust z-score, replicate 3: -1.1; outcome: inactive
POGZ → robust z-score, replicate 1: 0.962; robust z-score, replicate 2: 1.2; robust z-score, replicate 3: 1.86; outcome: inactive
GGA2 → robust z-score, replicate 1: -0.629; robust z-score, replicate 2: -1.14; robust z-score, replicate 3: -0.716; outcome: inactive
MKNK2 → robust z-score, replicate 1: 0.031; robust z-score, replicate 2: 0.885; robust z-score, replicate 3: 0.349; outcome: inactive
ENTPD1-AS1 → robust z-score, replicate 1: -0.218; robust z-score, replicate 2: 0.547; robust z-score, replicate 3: 0.166; outcome: inactive
FLACC1 → robust z-score, replicate 1: 0.892; robust z-score, replicate 2: -0.0908; robust z-score, replicate 3: 1; outcome: inactive
SLC16A9 → robust z-score, replicate 1: -1.75; robust z-score, replicate 2: -2.06; robust z-score, replicate 3: -1.85; outcome: inactive
IL1A → robust z-score, replicate 1: 1.49; robust z-score, replicate 2: 2.24; robust z-score, replicate 3: 1.85; outcome: inactive
CSF1R → robust z-score, replicate 1: -0.226; robust z-score, replicate 2: -0.636; robust z-score, replicate 3: -0.442; outcome: inactive
